Source: patent US9708251B2, “Unsaturated fatty alcohol alkoxylates from natural oil metathesis” (Stepan Company, priority 2012, dated 2017)
At least one compound was matched to its structure with a doubt left.

Assay: Surfactant phase behavior study (cross-polarized microscopy)
Assay type: physicochemical
Conditions: room temperature, in deionized water
Method: Phase behavior is observed using an Olympus BH-2 cross-polarized microscope at 100-400× and room temperature (20° C. to 22° C.). The inventive monounsaturated alcohol ethoxylates are compared with their saturated analogs.
Samples are prepared by diluting the most concentrated product gradually with deionized water. When the surfactant concentration approaches a phase transition, the concentration is varied at 2-4% intervals to estimate the phase boundary. The actives level reported in Table 4 for each phase boundary is within ±5% of the true boundary.
Samples are loaded between a microscope slide and cover glass and are allowed to equilibrate before observation. Microscopic texture is analyzed and used to determine the phase. For some samples, an AR 2000 rheometer (TA Instruments) is used to measure viscosity at 25° C. to further verify phase behavior.
In the case of `CCCCCCCCCCCCOCCOCCOCCOCCOCCOCCOCCOCCOCCOCCOCCOCCOCCOCCOCCO` [sat. analog of A12-16], the “Isotropic Clear phase region” value is reported as 0-28, 73-93.
With `CCCCCCCCCCCCOCCOCCOCCOCCOCCO` [sat. analog of A12-10] the “Isotropic Clear phase region” value was 0-30, 83-100.
For `CCCCCCCCCCOCCOCCOCCOCCOCCOCCOCCO` [sat. analog of A10-13], the “Isotropic Clear phase region” value was 0-43, 60-100.
With `CCCCCCCCCCOCCOCCOCCOCCOCCO` [sat. analog of A10-10] the “Isotropic Clear phase region” value was 0-55, 80-100.
With `CCCCCCCCCCOCCOCCOCCOCCOCCOCCOCCOCCOCCOCCOCCOCCOCCOCCOCCO` [sat. analog of A10-16] the “Isotropic Clear phase region” value was 0-37, 55-93.
